Laboratory results as given in publication PMC12224988, “The MdHB7L–MdICE1L–MdHOS1 Module Fine‐Tunes Apple Cold Response via CBF‐Dependent and CBF‐Independent Pathways”.

How the values were obtained:
[1] = system: MdICE1L-HIS; assay: EMSA; conditions: Beyotime Chemiluminescent EMSA Kit per manufacturer; pH and temperature not given; recombinant protein; protein details: His (pET28a); label: biotin
[2] = target: T1, MdHB7L-HIS (UniProt D9ZJ22); assay: EMSA; conditions: Beyotime Chemiluminescent EMSA Kit per manufacturer, pH and temperature not given, recombinant protein, label: biotin
T1 sequence (looked up, limits assumed): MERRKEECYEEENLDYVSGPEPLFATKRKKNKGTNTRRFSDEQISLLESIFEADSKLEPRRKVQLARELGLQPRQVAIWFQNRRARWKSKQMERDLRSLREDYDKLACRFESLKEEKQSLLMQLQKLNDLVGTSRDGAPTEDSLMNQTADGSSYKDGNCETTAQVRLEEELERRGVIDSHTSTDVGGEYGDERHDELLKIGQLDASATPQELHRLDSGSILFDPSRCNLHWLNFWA

“TAGCAACTAATTAAGTCTTCAATAATTTCTAAAAGCA (double strand) [pMdCBF1-HB-P3]”: no binding [1]; binds more weakly ([2]; MdICE1L-HIS added).
“AAAGCATAGAAATAATTCCAAAACTATTTT (double strand) [pMdCBF1-HB-P1]”: no binding [1]; binds more weakly ([2]; MdICE1L-HIS added).
“CTATTATTATTAATTACTTTTTTCACATAA (double strand) [pMdCBF1-HB-P2]”: no binding [1]; binds more weakly ([2]; MdICE1L-HIS added).
“CACTGTCGATTTAAATCATTCATACAGAAA (double strand) [pMdCBF3-HB-P2]”: no binding [1]; binds more weakly ([2]; MdICE1L-HIS added).
“GCACCAAGTCCAATTATTGAGCAATTAATG (double strand) [pMdPAP2-2-HB]”: binds more weakly ([2]; MdHOS1-GST added).
“GAAATTAAGTACTAATTGTTCAGTACCAAG (double strand) [pMdCBF1-HB-P4]”: no binding [1]; binds more weakly ([2]; MdICE1L-HIS added).
“AAAAATAAAATGATTAGCCTGGCGCATCTA (double strand) [pMdCBF3-HB-P1]”: no binding [1]; binds more weakly ([2]; MdICE1L-HIS added).
“TTAGGATAGTAATTGGTAACTCTCGACTCC (double strand) [pMdERDL6-1-1-HB]”: binds more weakly ([2]; MdHOS1-GST added).

For at least one entry, the source does not settle the construct or the ends of the probe. For some assays here: No signal at the amounts used counts as a negative. At least one verdict rests on a figure or table, not on a statement of the authors. For some assays here: A weaker result is weaker than the reference pair of the same experiment. For some assays here: Tags and fusion partners may be left off the protein sequences shown.
